Results published in PubChem BioAssay AID1671190 (National Center for Advancing Translational Sciences (NCATS), 2021).
Out of some 580,000 compounds screened, about 6,100 (1.1%) were called active. This list was built around the results that the source calls inconclusive (neither active nor inactive); the mix of calls is not that of the screen. The call rests on the fitted dose curve; in most records, active means well fitted inhibition curve with a large enough effect; inconclusive means small, poorly fitted or top-dose-only effect, or another doubt; inactive means no such curve, though single readings can be large or run the other way. Where the call is inconclusive, the potency comes from a doubtful curve fit.
On the % scale 0 is the no-effect control and ±100 the full control effect; potency means the concentration at half of the fitted maximal effect.

Amino acid sequences for entries named in this document (tags omitted).
UniProt P18054, whole entry, looked up: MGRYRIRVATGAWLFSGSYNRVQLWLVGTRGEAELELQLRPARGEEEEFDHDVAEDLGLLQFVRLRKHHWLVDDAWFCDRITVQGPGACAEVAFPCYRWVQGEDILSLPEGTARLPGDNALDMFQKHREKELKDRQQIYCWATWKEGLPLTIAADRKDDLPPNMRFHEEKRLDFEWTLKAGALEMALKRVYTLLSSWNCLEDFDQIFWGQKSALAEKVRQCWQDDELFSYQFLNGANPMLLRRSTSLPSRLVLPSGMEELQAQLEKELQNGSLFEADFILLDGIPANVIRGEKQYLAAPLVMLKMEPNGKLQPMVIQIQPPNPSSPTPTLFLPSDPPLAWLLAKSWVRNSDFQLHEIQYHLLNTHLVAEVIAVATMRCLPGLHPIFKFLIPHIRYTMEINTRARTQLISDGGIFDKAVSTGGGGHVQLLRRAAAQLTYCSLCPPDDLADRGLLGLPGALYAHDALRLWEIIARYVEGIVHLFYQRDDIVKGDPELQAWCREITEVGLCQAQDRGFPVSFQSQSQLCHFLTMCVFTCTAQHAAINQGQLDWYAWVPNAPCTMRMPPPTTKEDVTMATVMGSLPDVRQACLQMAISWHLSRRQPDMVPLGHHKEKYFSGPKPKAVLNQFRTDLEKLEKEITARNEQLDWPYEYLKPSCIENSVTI

These compounds were tested against Polyunsaturated fatty acid lipoxygenase ALOX12 (Homo sapiens) (UniProt P18054) (assay: Primary qHTS assay for inhibitors of human arachidonate 12S-lipoxygenase (ALOX12): Round 2). Conditions: purified 12hLO, xylenol orange hydroperoxide absorbance; activity change, negative = inhibition: at 108 µM (top of the series) unless noted.
In short: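 Purified human 12hLO at 150 nM in 25 mM Hepes, 0.01% Triton X-100, pH 7.0, preincubated 15 min at room temperature with compound. Reaction started with 40 uM arachidonic acid, 30 min at room temperature. Hydroperoxide measured by Fe-xylenol orange, 573/405 nm absorbance ratio.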
For `CN(C)Cc1cn(C[C@H]2C[C@@H](NC(=O)Nc3cccnc3)[C@H](O)[C@@H]2O)nn1`, the Potency was inconclusive: 11.2 µM [inhibitor, full curve].
For `Cc1nc2ccc(C(=O)N3CCN(C(=O)C4CC4)CC3)cc2nc1C`, the Potency was inconclusive: 70.8 µM [inhibitor, partial curve, poor fit].
In the case of `COc1cc(-n2c(C)nc3cccnc32)c(Cl)cc1C(=O)O`, the Potency is reported as inconclusive: 22.4 µM [inhibitor, single point].
With `C=CCn1c(-c2c[nH]c3ccccc23)n[nH]c1=S` the Potency was inconclusive: 15.8 µM [inhibitor, partial curve, poor fit].
With `CCCCNC(=O)c1ccc2c(Cl)c3c(nc2c1)CCCC3` the Potency was inconclusive: 89.1 µM [inhibitor, single point].
For `Cc1ccccc1S(=O)(=O)N1C(c2ccc(Cl)cc2)CC=C(C(=O)O)C1c1cccc(Cl)c1` (stereo not drawn), the Potency was inconclusive: 8.91 µM [inhibitor, partial curve, poor fit].
`CCc1ccc(Cn2nccc2NC(=O)C2CCN(S(=O)(=O)c3ccccc3)CC2)cc1` was tested, and the Potency was inconclusive: 28.2 µM [inhibitor, single point].
`CCN1CCN(S(=O)(=O)c2cc(OCC(=O)NC3CCCCC3)c(C)cc2Cl)CC1` was tested, and the “activity change, negative = inhibition” value was inactive: 0%.
In the case of `COc1cc(CNC(=O)C2CCCCC(=O)N2)cc(OC)c1` (stereo not drawn), the “activity change, negative = inhibition” value is reported as inactive: 21.8%.
In the case of `O=c1[nH]c2ccccc2cc1-c1nnn(-c2ccccc2)n1`, the Potency is reported as inconclusive: 70.8 µM [inhibitor, partial curve, poor fit].
`CCOC(=S)N/C(=N\S(=O)(=O)c1ccc(C)cc1)c1ccccc1` was tested, and the Potency was inconclusive: 44.7 µM [inhibitor, partial curve, poor fit].
With `COc1ccc(CNC(=O)C23CN(Cc4ccccc4)CC2C(c2ccc([N+](=O)[O-])cc2)=NO3)cc1` (stereo not drawn) the Potency was inconclusive: 22.4 µM [inhibitor, partial curve, poor fit].
With `O=C(OCc1ccc(C(F)(F)F)cc1)c1cc2c(cc1[N+](=O)[O-])OCCO2` the “activity change, negative = inhibition” value was inactive: 6.97%.
For `C/C(=N/NC(=O)C(=O)N/N=C(/C)c1ccccc1)c1ccccc1`, the “activity change, negative = inhibition” value was inactive: 4.76%.
With `CCNc1c(NC(=O)Nc2cccc(Cl)c2)c(=O)oc2ccccc12` the Potency was inconclusive: 79.4 µM [inhibitor, partial curve, poor fit].
With `Cc1cc2nc3c(=O)[nH]c(=O)nc-3n(CC(O)C(O)C(O)CO)c2cc1C` (stereo not drawn) the Potency was inconclusive: 1.12 µM [inhibitor, full curve, poor fit].
With `COc1cc2ccc(C(C)=NOC(C)=O)cc2cc1OC` the “activity change, negative = inhibition” value was inactive: -7.13%.
With `CCCN1C2=C(C(=O)CC(C)(C)C2)C(c2cccc(O)c2)C2=C1CC(C)(C)CC2=O` the “activity change, negative = inhibition” value was inactive: -21.8%.
In the case of `COc1ccc(NC(=O)Nc2cc(C(C)(C)C)on2)cc1OC`, the Potency is reported as inconclusive: 1.41 µM [inhibitor, partial curve, poor fit].
In the case of `COc1cc(/C=N/n2nnnc2N)ccc1O`, the Potency is reported as inconclusive: 126 µM [inhibitor, partial curve, poor fit].
With `COc1ccc(CCNC(=O)c2cnc3sc(N4CCCC4)nn3c2=O)cc1OC` the “activity change, negative = inhibition” value was inactive: -21.2%.
`O=C(CCc1nc(-c2cccnc2)no1)NCc1cc2n(n1)CCCNC2` was tested, and the Potency was inconclusive: 14.1 µM [inhibitor, full curve, poor fit].
`CCN1c2cc(C(=O)NCc3cc(F)ccc3F)ccc2C(=O)N2CCCCC21` (stereo not drawn) was tested, and the Potency was inconclusive: 25.1 µM [inhibitor, partial curve, poor fit].
In the case of `N#C/C(=C/C1=Cc2cc(Cl)ccc2OC1)c1nc2ccccc2[nH]1`, the Potency is reported as active: 15.8 µM.
With `COc1cc(C(=O)O)c(Br)cc1OC(C)C` the Potency was inconclusive: 70.8 µM [inhibitor, partial curve, poor fit].
For `CCOC(=O)[C@]12CCC=C1N(Cc1ccc3c(c1)OCO3)C(=O)[C@H](CC(=O)N1CCC(c3ccccc3)CC1)C2`, the Potency was inconclusive: 79.4 µM [inhibitor, single point].
`COc1ccc(-c2n[nH]c(=S)n2-c2ccc3c(c2)OCCO3)cc1OC` was tested, and the Potency was inconclusive: 39.8 µM [inhibitor, partial curve].
With `FC(F)(F)c1cccc(NC(=S)NC(c2ccccc2)c2ccccc2)c1` the Potency was active: 35.5 µM.
For `COc1ccc(OCC(O)CN2CCN(c3ccc(OC)cc3)CC2)cc1` (stereo not drawn), the Potency was inconclusive: 28.2 µM [inhibitor, partial curve, poor fit].
With `O=C(CCNS(=O)(=O)c1cccc2nonc12)Nc1ccc(Cl)cc1` the Potency was inconclusive: 112 µM [inhibitor, single point].
In the case of `N#Cc1cccc(NC(=O)CN2C(=O)NC(c3ccc(Cl)cc3)C3=C2COC3=O)c1` (stereo not drawn), the Potency is reported as inconclusive: 15.8 µM [inhibitor, full curve].
With `CCC(=O)OC1(C)C(=O)C=C2C=C(C3CC3)OC=C2C1=O` (stereo not drawn) the Potency was inconclusive: 44.7 µM [inhibitor, partial curve, poor fit].
With `CC1(Cc2ccc(OC(F)(F)F)cc2)C(=O)Nc2c(Cl)ccc(Cl)c21` (stereo not drawn) the activity change, negative = inhibition was inconclusive: -33.3% [inhibitor].
With `Cc1ccc(CNC(=O)c2nnn(CC(=O)Nc3cc(C)ccc3C)c2N)cc1` the “activity change, negative = inhibition” value was inactive: -17.7%.
With `CCOC(=O)c1cc(-c2ccc(F)cc2)n(CCC(=O)NCCc2ccc(C)cc2)c1C` the Potency was inconclusive: 11.2 µM [inhibitor, full curve, poor fit].
`COC(=O)c1[nH]c2cc(OC)ccc2c1NC(=O)CN1CCCC(C)(C)C1` was tested, and the “activity change, negative = inhibition” value was inactive: -17.4%.
In the case of `Cc1cc(NC(=O)c2cc3cccc([N+](=O)[O-])c3[nH]2)ccc1F`, the Potency is reported as inconclusive: 89.1 µM [inhibitor, single point].
With `CCOC(=O)C(=NC(C)CC)NNc1ccc(Br)cc1` (stereo not drawn) the Potency was active: 28.2 µM.
With `Cc1cccc(NC(=O)c2n[nH]nc2Nc2ccc(Cl)cc2)c1` the “activity change, negative = inhibition” value was inactive: 1.69%.
In the case of `C=CCn1c(SCC(=O)Nc2ccc(F)cc2F)nc2c([nH]c3ccccc32)c1=O`, the Potency is reported as inconclusive: 0.316 µM [inhibitor, full curve, poor fit].
For `CC(=O)c1cccc(NS(=O)(=O)c2c(C)noc2C)c1`, the “activity change, negative = inhibition” value was inactive: -26.6%.
`O=C(O)c1ccccc1-c1ccco1` was tested, and the Potency was inconclusive: 22.4 µM [inhibitor, partial curve, poor fit].
`O=C(Nc1ccccc1)[C@@H]1C[C@H](c2ccc(F)cc2)N([S+](=O)([O-])C2CC2)C1` was tested, and the Potency was inconclusive: 112 µM [inhibitor, partial curve, poor fit].
With `CC(C)CNC(=O)C(=O)NCCc1c[nH]c2ccccc12` the Potency was inconclusive: 50.1 µM [inhibitor, partial curve, poor fit].
For `O=S1(=O)CCCN1C1CCN(Cc2cccc3ccccc23)CC1`, the Potency was inconclusive: 100 µM [inhibitor, single point].
`COCCNC(=O)c1cc2c(c(-c3cccc(-c4cc5ccccc5o4)c3)n1)[C@@H](CCO)N(S(=O)C(C)(C)C)C2` (stereo partly drawn) was tested, and the Potency was inconclusive: 1.58 µM [inhibitor, full curve, poor fit].
In the case of `CNC(=O)c1ccc(NC(=O)CSc2ncc(-c3ccc(F)cc3)o2)cc1`, the Potency is reported as inconclusive: 12.6 µM [inhibitor, partial curve, poor fit].
For `CCN(c1ccc(NC(=O)COC(=O)C(C)N=C2NS(=O)(=O)c3ccccc32)cc1)C(C)C` (stereo not drawn), the Potency was inconclusive: 0.501 µM [inhibitor, partial curve, poor fit].
`Cc1ccccc1C1(CC(=O)N2CCC[C@H]2C(N)=O)CC(=O)N(C2CCCC2)C1=O` (stereo partly drawn) was tested, and the Potency was inconclusive: 112 µM [inhibitor, single point].
`Cc1cccc2cc(COC(=O)c3ccccn3)c(=O)[nH]c12` was tested, and the “activity change, negative = inhibition” value was inactive: -2.71%.
In the case of `Cc1cc(C)nc(NN2C(=O)/C(=C/c3ccc(O)cc3)SC2=S)n1`, the Potency is reported as inconclusive: 70.8 µM [inhibitor, partial curve, poor fit].
In the case of `COC(=O)[C@]12CCCCC=C1N(Cc1ccc3c(c1)OCO3)C(=O)[C@H](CC(=O)NCCCN1CCCC1=O)C2`, the Potency is reported as inconclusive: 3.16 µM [inhibitor, full curve, poor fit].
For `Cc1ccc(C2CC(c3cccc(Cl)c3)n3nc(N)nc3N2)cc1` (stereo not drawn), the Potency was inconclusive: 20 µM [inhibitor, full curve, poor fit].
With `CC(=O)c1c(C)[nH]c(C(=O)OC(C)C(=O)Nc2ccc(Cl)cn2)c1C` (stereo not drawn) the Potency was inconclusive: 56.2 µM [inhibitor, partial curve, poor fit].
With `Cc1ccc(-c2ccc(=O)n(Cc3ccc(Cl)cc3)n2)cc1S(=O)(=O)N1CCCC1` the Potency was inconclusive: 2.51 µM [inhibitor, full curve, poor fit].
With `Cc1cc(C)c2c(n1)sc1c(O)cc(=O)[nH]c12` the Potency was inconclusive: 44.7 µM [inhibitor, partial curve, poor fit].
`CC(C)(C)OC(=O)N[C@@H](Cc1ccccc1)C(=O)N1CCC(C(=O)N[C@@H](Cc2c[nH]c3ccccc23)C(=O)O)CC1` was tested, and the Potency was inconclusive: 89.1 µM [inhibitor, single point].
For `Cc1ccc(N=C2CCCCCN2C)c(C#N)c1`, the Potency was inconclusive: 89.1 µM [inhibitor, single point].
For `CCOC(=O)c1ccc(NC(=O)Nc2cc3c(cc2N2CCCC2)n(C)c(=O)n3C)cc1`, the “activity change, negative = inhibition” value was inactive: -18.2%.
`Cc1[nH]c2ccccc2c1C(=O)COC(=O)c1c(-c2ccccc2Cl)noc1C` was tested, and the Potency was inconclusive: 79.4 µM [inhibitor, partial curve, poor fit].
With `CCCOc1ccc(S(=O)(=O)NCCN2CCOCC2)c2ccccc12` the “activity change, negative = inhibition” value was inactive: -0.964%.
For `Cc1cc(NC(=O)CSc2nc(-c3ccccc3)c(C#N)c(=O)[nH]2)no1`, the activity change, negative = inhibition was inconclusive: -32.9% [inhibitor].
For `COc1ccccc1CNC(=O)c1nc(-c2ccccc2)oc1C`, the Potency was inconclusive: 126 µM [inhibitor, single point].
